# Source: PubChem BioAssay AID248 (DTP/NCI, 2004)
# The list does not hold the whole screen: it gathers tests that were run many times, whatever their T/C, doses with no T/C, and many T/C values between a quarter and a half above the control. Other doses and runs of a compound stand elsewhere. T/C is the treated group as % of the vehicle group. Some doses have a count of surviving animals in place of a T/C: the source holds a T/C of zero for them, seemingly a mark for toxic or unscored doses. Some survivor counts are full or nearly so, which does not show that the dose was tolerated: survival well below the control is almost never listed, so the zero probably covers shortened survival too. Counts of survivors are from the toxicity check (mostly the fifth day) where no day follows; animals may have died later. Schedules are NCI's codes, taken here to give the interval after Q, in days (D) or hours (H), and the number of doses after X. Some entries hold several experiments; the values are given in rising order. Some schedules carry Z or #; the key to these is not given. For survival time, the PubChem record calls one and a half times the control and up active, and a quarter to a half above the control has no call in these data; cut-offs in other NCI protocols can differ. Some T/C values are followed by the survivors on the day toxicity was checked, most often the fifth; where none is given, no animal had died by that day.
# System: L1210 leukemia ip in BDF1 mice, survival T/C
# Assay: NCI In Vivo Anticancer Drug Screen. Data for tumor model L1210 Leukemia (intraperitoneal) in B6D2F1 (BDF1) mice
# Details: T/C endpoint: mean survival time, higher T/C = longer survival
# [1] = dose: 200.0 mg/kg/injection, schedule: Q01DX009 (ip), vehicle: saline with Tween-80
# [2] = dose: 400.0 mg/kg/injection, schedule: Q01DX009 (ip), vehicle: saline with Tween-80
# [3] = dose: 400.0 mg/kg/injection, schedule: Q04DX002 (ip), vehicle: Klucel (hydroxypropylcellulose) (HPC)
smiles,measurement,setting,value
CCOP(=O)(OCC)N1CC1c1ccccc1 (centres undefined),survivor count,"dose: 150.0 mg/kg/injection, schedule: Q01DX001 (ip), vehicle: carboxymethylcellulose (CMC)",0 of 6
same,survivor count,"dose: 300.0 mg/kg/injection, schedule: Q01DX001 (ip), vehicle: carboxymethylcellulose (CMC)",0 of 6
CC1(C)N=C(N)N=C(N)N1c1cccc(CC(=O)Nc2ccc(S(=O)(=O)F)cc2)c1,T/C,"dose: 100.0 mg/kg/injection, schedule: Q01DX009 (ip), vehicle: saline with Tween-80",128 % of control
same,T/C,[1],140 and 141 % of control [5 of 6 alive]
same,survivor count,[2],4 of 6
same,survivor count,"dose: 500.0 mg/kg/injection, schedule: Q01DX009 (ip), vehicle: saline",0 of 6
CCCCCCCCC/C(C)=N\N=C(N)N,survivor count,"dose: 30.0 mg/kg/injection, schedule: Q01DX Z (ip), vehicle: methylcellulose (MC)",1 of 6
same,survivor count,"dose: 60.0 mg/kg/injection, schedule: Q01DX Z (ip), vehicle: methylcellulose (MC)",0 of 6
same,survivor count,"dose: 120.0 mg/kg/injection, schedule: Q01DX Z (ip), vehicle: methylcellulose (MC)",0 of 6
same,survivor count,"dose: 240.0 mg/kg/injection, schedule: Q01DX Z (oral), vehicle: methylcellulose (MC)",2 of 6
same,survivor count,"dose: 480.0 mg/kg/injection, schedule: Q01DX Z (oral), vehicle: methylcellulose (MC)",2 of 6
NC(N)=N/N=C/c1cc(Cl)ccc1O,survivor count,"dose: 50.0 mg/kg/injection, schedule: Q04DX002 (ip), vehicle: Klucel (hydroxypropylcellulose) (HPC)",2 of 3 and 3 of 3
same,survivor count,"dose: 100.0 mg/kg/injection, schedule: Q04DX002 (ip), vehicle: Klucel (hydroxypropylcellulose) (HPC)",2 of 3
same,survivor count,"dose: 200.0 mg/kg/injection, schedule: Q04DX002 (ip), vehicle: Klucel (hydroxypropylcellulose) (HPC)",0 of 3
same,survivor count,[3],0 of 3
C1=CC=CN(c2ccccc2)C=C1,survivor count,"dose: 400.0 mg/kg/injection, schedule: Q01DX009 (ip), vehicle: Klucel (hydroxypropylcellulose) (HPC)",3 of 6
CCCC(=O)C(CCN(C)C)c1ccccn1 (centres undefined),survivor count,"dose: 100.0 mg/kg/injection, schedule: Q01DX Z (ip), vehicle: methylcellulose (MC)",2 of 6
C1=CCOCOC1,survivor count,[1],0 of 6
same,survivor count,[2],0 of 6
O=C(OCc1ccc2c(c1)OCO2)C1CC1,survivor count,"dose: 200.0 mg/kg/injection, schedule: Q04DX002 (ip), vehicle: saline with Tween-80",1 of 3
O=C(O)C(c1ccccc1)P(=S)(c1ccccc1)c1ccccc1 (centres undefined),survivor count,"dose: 300.0 mg/kg/injection, schedule: Q01DX001 (ip), vehicle: other",0 of 6
CCc1ccc(NC(=O)NCCCl)cc1,survivor count,[3],1 of 3
Nc1ccc(Nc2ccc(N)cc2)cc1,survivor count,"dose: 20.0 mg/kg/injection, schedule: Q01DX001 (ip), vehicle: saline",1 of 4
same,survivor count,"dose: 40.0 mg/kg/injection, schedule: Q01DX001 (ip), vehicle: saline",0 of 4
same,survivor count,"dose: 50.0 mg/kg/injection, schedule: Q01DX001 (ip), vehicle: saline",0 of 4
same,survivor count,"dose: 80.0 mg/kg/injection, schedule: Q01DX001 (ip), vehicle: saline",0 of 4
same,survivor count,"dose: 100.0 mg/kg/injection, schedule: Q01DX001 (ip), vehicle: saline",0 of 4
same,survivor count,"dose: 200.0 mg/kg/injection, schedule: Q01DX001 (ip), vehicle: saline",0 of 4
same,survivor count,"dose: 400.0 mg/kg/injection, schedule: Q01DX001 (ip), vehicle: saline",0 of 4
